Test results taken from patent US20250154171A1, “RAS INHIBITORS” (Revolution Medicines, Inc., priority 2023, published 2025).
Some of these results come from one statement about several compounds together.

The chains behind the UniProt entries cited, without tags or fusion partners. Where a name states a change or a piece, a line headed by the entry shows the natural chain unless it says otherwise. Residues count along the entry.
UniProt P01116, 1-188 isoform P01116-2 G12V: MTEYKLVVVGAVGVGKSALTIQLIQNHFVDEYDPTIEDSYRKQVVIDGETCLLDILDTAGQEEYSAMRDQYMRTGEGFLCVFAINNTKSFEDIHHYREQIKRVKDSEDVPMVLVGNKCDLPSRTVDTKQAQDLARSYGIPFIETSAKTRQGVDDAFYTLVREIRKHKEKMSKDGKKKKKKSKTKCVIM
UniProt P62937, whole entry: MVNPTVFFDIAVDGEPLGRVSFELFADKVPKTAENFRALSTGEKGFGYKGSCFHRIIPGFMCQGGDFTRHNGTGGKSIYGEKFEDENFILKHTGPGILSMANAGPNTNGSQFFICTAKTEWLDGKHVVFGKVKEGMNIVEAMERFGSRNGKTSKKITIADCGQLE

Assays:
K-RasG12V = K-RasG12V (Homo sapiens, UniProt P01116+P62937, G12V); experiment: Disruption of BRAF RBD interaction with K-Ras (TR-FRET / MOA assay), K-RasG12V; type: biochemical; conditions: TR-FRET with cyclophilin A and GST-BRAF RBD, read-out: IC50 with respect to K-RasG12V (disruption of BRAF RBD interaction)
Capan-1 (K-Ras G12V) = experiment: CellTiter-Glo cell viability assay, Capan-1; type: cell-based, human; conditions: 5-day treatment; for decrease in cell viability with respect to KRAS G12V (Capan-1) versus wild-type KRAS (A375): Capan-1 versus A375; for decrease in cell viability with respect to Capan-1 and/or NCI-H2009 versus wild-type KRAS (A375): Capan-1 and/or NCI-H2009 versus A375

SMILES | IC50 (K-RasG12V) [nM] | decrease in cell viability with respect to KRAS G12V (Capan-1) versus wild-type KRAS (A375) (Capan-1 (K-Ras G12V)) | decrease in cell viability with respect to Capan-1 and/or NCI-H2009 versus wild-type KRAS (A375) (Capan-1 (K-Ras G12V))
CO[C@@H](C)c1ncc(N2CCN(C3CC3)CC2)cc1-c1c2c3cc(ccc3n1CCO[C@H]1CCOC(C)(C)C1)-c1coc(n1)[C@@H](N1CC3(COC3)C1)[C@H](NC(=O)[C@H]1[C@H](C)[C@@H]1C)C(=O)N1CCC[C@H](N1)C(=O)OCC(C)(C)C2 (atropisomer, axis not shown) [Example A243] | < 1000 | greater decrease in cell viability | –
CO[C@@H](C)c1ncccc1-c1c2c3cc(ccc3n1C1COC1)-c1csc(n1)[C@@H](N1CC3(COC3)C1)[C@H](NC(=O)C13CC(C1)C1(CC1)O3)C(=O)N1N[C@H](C(=O)OCC(C)(C)C2)C2CC1C2 (racemic) [Example A1] | < 1000 | greater decrease in cell viability | –
CO[C@@H](C)c1ncc(C2CCN(C3CC3)CC2)cc1-c1c2c3cc(ccc3n1CCOC1CCOCC1)-c1coc(n1)[C@@H](N1CC3(COC3)C1)[C@H](NC(=O)[C@@H]1OC[C@@H]1C)C(=O)N1CCC[C@H](N1)C(=O)OCC(C)(C)C2 (racemic) [Example A4] | < 1000 | greater decrease in cell viability | –
CO[C@@H](C)c1ncc(N2CCN(C3CC3)CC2)cc1-c1c2c3cc(ccc3n1CCOC1CCOCC1)-c1coc(n1)[C@@H](N1CC3(CCCO3)C1)[C@H](NC(=O)[C@H]1C[C@@H]1C)C(=O)N1CCC[C@H](N1)C(=O)OCC(C)(C)C2 (racemic) [Example A6] | < 1000 | greater decrease in cell viability | –
CCn1c(-c2cccnc2[C@H](C)OC)c2c3cc(ccc31)-c1coc(n1)[C@@H](N1CC3(COC3)C1)[C@H](NC(=O)[C@H]1[C@H](C)[C@@H]1C)C(=O)N1CCC[C@H](N1)C(=O)OCC(C)(C)C2 (racemic) [Example A7] | < 1000 | greater decrease in cell viability | –
CO[C@@H](C)c1ncccc1-c1c2c3cc(ccc3n1C1CC1)-c1coc(n1)[C@@H](N1CC3(COC3)C1)[C@H](NC(=O)[C@H]1[C@H](C)[C@@H]1C)C(=O)N1CCC[C@H](N1)C(=O)OCC(C)(C)C2 (racemic) [Example A8] | < 1000 | greater decrease in cell viability | –
CO[C@@H](C)c1ncc(N2CCN(C3CC3)CC2)cc1-c1c2c3cc(ccc3n1CCOC1CCOCC1)-c1csc(n1)[C@@H](N1CC3(COC3)C1)[C@H](NC(=O)C13COC(CO1)C3)C(=O)N1CCC[C@H](N1)C(=O)OCC(C)(C)C2 (racemic) [Example A9] | < 1000 | greater decrease in cell viability | –
CO[C@@H](C)c1ncc(N2CCN(C3CC3)CC2)cc1-c1c2c3cc(ccc3n1CCOC1CCOCC1)-c1csc(n1)[C@@H](N1CC3(COC3)C1)[C@H](NC(=O)C13CCC(C1)C(C)O3)C(=O)N1CCC[C@H](N1)C(=O)OCC(C)(C)C2 (mixture of isomers) [Example A10] | < 1000 | greater decrease in cell viability | –
CO[C@@H](C)c1ncc(N2CCN(C3CC3)CC2)cc1-c1c2c3cc(ccc3n1CCOC1CCOCC1)-c1csc(n1)[C@@H](N1CC(CO)(CO)C1)[C@H](NC(=O)[C@@H]1OC[C@@H]1C)C(=O)N1N[C@H](C(=O)OCC(C)(C)C2)C2CC1C2 (racemic) [Example A14] | < 1000 | greater decrease in cell viability | –
CO[C@@H](C)c1ncc(N2CCN(C3CC3)CC2)cc1-c1c2c3cc(ccc3n1CCOC1CCOCC1)-c1coc(n1)[C@@H](N1CC3(CCCO3)C1)[C@H](NC(=O)[C@H]1[C@H](C)[C@@H]1C)C(=O)N1CCC[C@H](N1)C(=O)OCC(C)(C)C2 (racemic) [Example A15] | < 1000 | greater decrease in cell viability | –
CO[C@@H](C)c1ncc(N2CCN(C3CC3)CC2)cc1-c1c2c3cc(ccc3n1CCOC1CCOCC1)-c1csc(n1)[C@@H](N1CC3(COC3)C1)[C@H](NC(=O)C13CC(C1)C1(CC1)O3)C(=O)N1CCC[C@H](N1)C(=O)OCC(C)(C)C2 (racemic) [Example A16] | < 1000 | greater decrease in cell viability | –
CO[C@@H](C)c1ncccc1-c1c2c3cc(ccc3n1C1CC1)-c1coc(n1)[C@@H](N1CC(C)(OC)C1)[C@H](NC(=O)C13CC(C1)C(C)(C)O3)C(=O)N1N[C@H](C(=O)OCC(C)(C)C2)C2CC1C2 (racemic) [Example A17] | < 1000 | greater decrease in cell viability | –
CO[C@@H](C)c1ncc(N2CCN(C3CC3)CC2)cc1-c1c2c3cc(ccc3n1CCOC1CCOCC1)-c1csc(n1)[C@@H](NCC1(CO)COC1)[C@H](NC(=O)[C@@H]1OC[C@@H]1C)C(=O)N1N[C@H](C(=O)OCC(C)(C)C2)C2CC1C2 (racemic) [Example A18] | < 1000 | greater decrease in cell viability | –
CO[C@@H](C)c1ncc(C2CCN(C3CC3)CC2)cc1-c1c2c3cc(ccc3n1CCOC1CCOCC1)-c1coc(n1)[C@@H](N1CC3(COC3)C1)[C@H](NC(=O)[C@H]1[C@@H]3COC[C@@H]31)C(=O)N1CCC[C@H](N1)C(=O)OCC(C)(C)C2 (racemic) [Example A19] | < 1000 | greater decrease in cell viability | –
CO[C@@H](C)c1ncc(C2CCN(C3CC3)CC2)cc1-c1c2c3cc(ccc3n1CCOC1CCOCC1)-c1coc(n1)[C@@H](N1CC3(COC3)C1)[C@H](NC(=O)[C@H]1C[C@@H]1C)C(=O)N1CCC[C@H](N1)C(=O)OCC(C)(C)C2 (racemic) [Example A20] | < 1000 | greater decrease in cell viability | –
COC(C)c1ncccc1-c1c2c3cc(ccc3n1C1CN(C3CC3)C1)-c1csc(n1)C(N1CC3(CCN3C(C)=O)C1)C(NC(=O)C1C(C)C1C)C(=O)N1CCCC(N1)C(=O)OCC(C)(C)C2 (stereo not shown) [Example A993] | – | – | greater decrease in cell viability
COC(C)c1ncccc1-c1c2c3cc(ccc3n1C1CN(C3CC3)C1)-c1csc(n1)C(N1CC3(CCN3C(C)=O)C1)C(NC(=O)C1C(C)C1c1ccncn1)C(=O)N1CCCC(N1)C(=O)OCC(C)(C)C2 (stereo not shown) [Example A994] | – | – | greater decrease in cell viability
C[C@@H]1[C@H](C)[C@H]1C(=O)N[C@@H]1C(=O)N2CCC[C@H](N2)C(=O)OCC(C)(C)Cc2c(-c3cccnc3)n(C3CC[C@H](C#N)C3)c3ccc(cc23)-c2csc(n2)[C@H]1N1CC2(COC2)C1 (stereo partly shown) [Example A1009] | – | – | greater decrease in cell viability
CO[C@@H](C)c1ncccc1-c1c2c3cc(ccc3n1C1CN(C3CC3)C1)-c1coc(n1)[C@@H](N1CC3(CCCN3)C1)[C@H](NC(=O)[C@H]1[C@H](C)[C@@H]1C)C(=O)N1CCC[C@H](N1)C(=O)OCC(C)(C)C2 [Example A1019] | – | – | greater decrease in cell viability
